According to article PMC10665427:

Biological target: T1, Lon^EQ (Lon E420Q, Walker-B mutant) (C. crescentus) (UniProt B8GX12)
T1 sequence: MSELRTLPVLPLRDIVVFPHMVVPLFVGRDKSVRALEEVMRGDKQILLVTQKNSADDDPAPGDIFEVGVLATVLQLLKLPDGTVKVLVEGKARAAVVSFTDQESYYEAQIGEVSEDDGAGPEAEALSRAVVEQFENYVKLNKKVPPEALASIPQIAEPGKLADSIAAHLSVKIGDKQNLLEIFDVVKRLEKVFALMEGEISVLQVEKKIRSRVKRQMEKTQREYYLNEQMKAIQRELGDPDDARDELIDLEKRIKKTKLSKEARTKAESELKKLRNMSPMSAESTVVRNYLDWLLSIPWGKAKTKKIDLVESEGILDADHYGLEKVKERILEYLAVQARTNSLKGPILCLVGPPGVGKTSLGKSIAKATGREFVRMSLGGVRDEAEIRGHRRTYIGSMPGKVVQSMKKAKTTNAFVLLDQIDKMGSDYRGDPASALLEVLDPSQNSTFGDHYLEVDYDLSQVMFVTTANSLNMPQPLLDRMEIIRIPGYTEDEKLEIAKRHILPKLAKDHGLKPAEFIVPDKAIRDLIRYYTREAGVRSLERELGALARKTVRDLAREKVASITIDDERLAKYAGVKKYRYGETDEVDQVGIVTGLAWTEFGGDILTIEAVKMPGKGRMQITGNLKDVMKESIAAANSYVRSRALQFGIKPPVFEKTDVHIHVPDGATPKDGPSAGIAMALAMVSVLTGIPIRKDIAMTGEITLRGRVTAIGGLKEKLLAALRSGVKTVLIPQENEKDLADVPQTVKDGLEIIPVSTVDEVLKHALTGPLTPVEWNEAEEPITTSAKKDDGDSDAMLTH
Assay: native MS; purified proteins buffer exchanged into 200 mM ammonium acetate pH 8.0, mixed in equimolar ratios (LarA also in 3-fold excess); nano ESI, Waters Synapt G2, source temperature 30 °C; both purified

## LarA^Δ5, purified (C. crescentus) (domain or fragment)
  binding: no binding

Results are given in words; binding and its absence hold for the method and conditions named.
